Assay [1] concerns the target EZH2, endogenous in 4T1 cells (mouse (endogenous in 4T1)), Q61188. Description: co-IP. The settings on record: remark: other sources report otherwise.
Assay [2] addresses Myc-tagged NUP210 (NUP210-Myc), stably overexpressed in 4T1 cells (mouse) (UniProt Q9QY81). The experiment in a line: co-IP.

The chains behind the UniProt entries cited, without tags or fusion partners. Residues count along the entry.
UniProt Q9QY81, residues 27-1886: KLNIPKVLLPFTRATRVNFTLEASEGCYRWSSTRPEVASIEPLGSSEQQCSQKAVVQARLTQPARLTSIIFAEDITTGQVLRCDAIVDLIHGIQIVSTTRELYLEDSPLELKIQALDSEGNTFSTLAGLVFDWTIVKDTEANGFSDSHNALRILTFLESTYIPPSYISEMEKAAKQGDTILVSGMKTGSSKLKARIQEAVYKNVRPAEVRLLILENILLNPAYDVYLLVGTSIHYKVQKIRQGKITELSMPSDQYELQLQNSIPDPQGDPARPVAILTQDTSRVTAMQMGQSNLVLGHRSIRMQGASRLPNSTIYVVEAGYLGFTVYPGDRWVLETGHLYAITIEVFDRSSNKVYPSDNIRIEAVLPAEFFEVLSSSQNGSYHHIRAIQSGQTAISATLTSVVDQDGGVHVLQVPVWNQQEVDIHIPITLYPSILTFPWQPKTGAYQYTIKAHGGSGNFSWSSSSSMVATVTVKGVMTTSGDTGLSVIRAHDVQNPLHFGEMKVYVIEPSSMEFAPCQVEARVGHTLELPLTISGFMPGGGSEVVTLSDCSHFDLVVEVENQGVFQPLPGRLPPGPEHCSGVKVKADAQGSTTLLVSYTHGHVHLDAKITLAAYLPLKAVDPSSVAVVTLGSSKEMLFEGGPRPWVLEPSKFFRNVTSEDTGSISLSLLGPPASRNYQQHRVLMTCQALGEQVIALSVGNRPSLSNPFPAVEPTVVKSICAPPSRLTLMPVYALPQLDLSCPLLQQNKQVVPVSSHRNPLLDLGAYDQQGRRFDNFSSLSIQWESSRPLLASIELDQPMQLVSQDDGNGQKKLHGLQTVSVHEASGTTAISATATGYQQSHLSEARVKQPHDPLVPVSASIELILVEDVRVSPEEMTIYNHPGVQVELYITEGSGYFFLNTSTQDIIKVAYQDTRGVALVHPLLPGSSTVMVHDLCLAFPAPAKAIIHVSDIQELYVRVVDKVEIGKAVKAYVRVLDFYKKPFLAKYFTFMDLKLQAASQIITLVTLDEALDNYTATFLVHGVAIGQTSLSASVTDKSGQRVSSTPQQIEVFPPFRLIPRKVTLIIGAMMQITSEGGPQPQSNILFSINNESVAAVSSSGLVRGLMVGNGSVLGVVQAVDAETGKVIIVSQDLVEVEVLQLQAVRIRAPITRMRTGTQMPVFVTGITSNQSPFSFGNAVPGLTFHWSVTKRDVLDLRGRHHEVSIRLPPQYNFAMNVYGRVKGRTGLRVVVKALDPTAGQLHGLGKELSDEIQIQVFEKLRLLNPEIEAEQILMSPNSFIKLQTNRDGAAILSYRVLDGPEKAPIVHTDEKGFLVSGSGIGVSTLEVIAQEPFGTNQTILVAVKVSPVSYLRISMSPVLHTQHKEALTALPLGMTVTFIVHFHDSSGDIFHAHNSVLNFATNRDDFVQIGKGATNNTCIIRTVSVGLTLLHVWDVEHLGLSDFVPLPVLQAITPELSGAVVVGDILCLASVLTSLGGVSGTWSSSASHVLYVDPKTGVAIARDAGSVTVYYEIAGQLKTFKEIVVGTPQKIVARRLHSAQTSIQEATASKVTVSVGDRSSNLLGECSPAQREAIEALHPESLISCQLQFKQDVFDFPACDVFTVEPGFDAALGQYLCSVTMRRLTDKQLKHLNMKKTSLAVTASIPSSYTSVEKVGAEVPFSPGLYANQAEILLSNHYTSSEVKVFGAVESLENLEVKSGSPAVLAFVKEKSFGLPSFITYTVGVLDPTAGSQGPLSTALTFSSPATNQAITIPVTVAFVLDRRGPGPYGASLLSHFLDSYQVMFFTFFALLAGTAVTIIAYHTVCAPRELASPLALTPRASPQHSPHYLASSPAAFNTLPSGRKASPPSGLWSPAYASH

These are yes or no findings as the source states them, for the method shown. In cells and extracts the contact can be indirect. Some results given as binding are weak or reduced against the parent protein; the word gives no strength.

B1: SUZ12, endogenous in 4T1 cells, Q80U70 1-741 (protein)
chain: MAPQKHGGGGGGGSGPSAGSGGGGFGGSAAAVAAAASGGKSGGGGCGGGGSYSASSSSAAAAAAAAGAAVLPVKKPKMEHVQADHELFLQAFEKPTQIYRFLRTRNLIAPIFLHRTLTYMSHRNSRTSIKRKTFKVDDMLSKVEKMKGEQESHSLSAHLQLTFTGFFHKNDKPSQNSENEQNSVTLEVLLVKVCHKKRKDVSCPIRQVPTGKKQVPLNPDLNQTKPGNFPSLAVSSNEFEPSNSHMVKSYSLLFRVTRPGRREFNGMINGETNENIDVSEELPARRKRNREDGEKTFVAQMTVFDKNRRLQLLDGEYEVAMQEMEECPISKKRATWETILDGKRLPPFETFSQGPTLQFTLRWTGETNDKSTAPVAKPLATRNSESLHQENKPGSVKPAQTIAVKETLTTELQTRKEKDNSNESRQKLRIFYQFLYNNNTRQQTEARDDLHCPWCTLNCRKLYSLLKHLKLCHSRFIFNYVYHPKGARIDVSINECYDGSYAGNPQDIHRQPGFAFSRNGPVKRTPITHILVCRPKRTKASMSEFLESEDGEVEQQRTYSSGHNRLYFHSDTCLPLRPQEMEVDSEDEKDPEWLREKTITQIEEFSDVNEGEKEVMKLWNLHVMKHGFIADNQMNHACMLFVENYGQKIIKKNLCRNFMLHLVSMHDFNLISIMSIDKAVTKLREMQQKLEKGESATPSNEEIAEEQNGTANGFSETNSKEKALETDGVSGVPKQSKKQKL
With B1, the binding result in assay [1] is given as “binds”.

B2: SUN2, endogenous in 4T1 cells (protein, UniProt Q8BJS4 1-731)
chain: MSRRSQRLTRYSQDDNDGGSSSSGASSVAGSQGTVFKDSPLRTLKRKSSNMKHLSPAPQLGPSSDSHTSYYSESVVRESYIGSPRAVSLARSALLDDHLHSEPYWSGDLRGRRRRGTGGSESSKANGLTAESKASEDFFGSSSGYSSEDDLAGYTDSDQHSSGSRLRSAASRAGSFVWTLVTFPGRLFGLLYWWIGTTWYRLTTAASLLDVFVLTRSRHFSLNLKSFLWFLLLLLLLTGLTYGAWHFYPLGLQTLQPAVVSWWAAKESRKQPEVWESRDASQHFQAEQRVLSRVHSLERRLEALAADFSSNWQKEAIRLERLELRQGAAGHGGGSSLSHEDALSLLEGLVSRREATLKEDLRRDTVAHIQEELATLRAEHHQDSEDLFKKIVQASQESEARVQQLKTEWKSMTQEAFQESSVKELGRLEAQLASLRQELAALTLKQNSVADEVGLLPQKIQAARADVESQFPDWIRQFLLGDRGARSGLLQRDEMHAQLQELENKILTKMAEMQGKSAREAAASLGQILQKEGIVGVTEEQVHRIVKQALQRYSEDRIGMVDYALESGGASVISTRCSETYETKTALLSLFGIPLWYHSQSPRVILQPDVHPGNCWAFQGPQGFAVVRLSARIRPTAVTLEHVPKALSPNSTISSAPKDFAIFGFDEDLQQEGTLLGTFAYDQDGEPIQTFYFQASKMATYQVVELRILTNWGHPEYTCIYRFRVHGEPAH
Consider B2, for which the binding entry in assay [2] was “binds”.

B3: SUN1, endogenous in 4T1 cells (protein, UniProt Q9D666 1-913)
chain: MDFSRLHTYTPPQCVPENTGYTYALSSSYSSDALDFETEHKLEPVFDSPRMSRRSLRLVTTASYSSGDSQAIDSHISTSRATPAKGRETRTVKQRRSASKPAFSINHLSGKGLSSSTSHDSSCSLRSATVLRHPVLDESLIREQTKVDHFWGLDDDGDLKGGNKAATQGNGELAAEVASSNGYTCRDCRMLSARTDALTAHSAIHGTTSRVYSRDRTLKPRGVSFYLDRTLWLAKSTSSSFASFIVQLFQVVLMKLNFETYKLKGYESRAYESQSYETKSHESEAHLGHCGRMTAGELSRVDGESLCDDCKGKKHLEIHTATHSQLPQPHRVAGAMGRLCIYTGDLLVQALRRTRAAGWSVAEAVWSVLWLAVSAPGKAASGTFWWLGSGWYQFVTLISWLNVFLLTRCLRNICKVFVLLLPLLLLLGAGVSLWGQGNFFSLLPVLNWTAMQPTQRVDDSKGMHRPGPLPPSPPPKVDHKASQWPQESDMGQKVASLSAQCHNHDERLAELTVLLQKLQIRVDQVDDGREGLSLWVKNVVGQHLQEMGTIEPPDAKTDFMTFHHDHEVRLSNLEDVLRKLTEKSEAIQKELEETKLKAGSRDEEQPLLDRVQHLELELNLLKSQLSDWQHLKTSCEQAGARIQETVQLMFSEDQQGGSLEWLLEKLSSRFVSKDELQVLLHDLELKLLQNITHHITVTGQAPTSEAIVSAVNQAGISGITEAQAHIIVNNALKLYSQDKTGMVDFALESGGGSILSTRCSETYETKTALLSLFGVPLWYFSQSPRVVIQPDIYPGNCWAFKGSQGYLVVRLSMKIYPTTFTMEHIPKTLSPTGNISSAPKDFAVYGLETEYQEEGQPLGRFTYDQEGDSLQMFHTLERPDQAFQIVELRVLSNWGHPEYTCLYRFRVHGEPIQ
Consider B3, for which the binding result in assay [2] is on record as “no binding”.

(Values after publication doi:10.1101/2020.02.05.936518.)
